## Screening data

Source: PubChem BioAssay AID1918960 (NCATS, 2023).

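Cultured KMM1 myeloma cells are exposed to compounds for two days, then surviving cells are gauged by an ATP luminescent signal. Each compound runs as a dilution series from about 0.00003 µM, mostly topping out near 45.8 µM (up to 92 µM for some). The number is the fitted AC50 potency for loss of viability; a lower value means a more potent compound. Calls follow the curve class and fit quality; inconclusive means a weak, poorly fitted, top-dose-only or opposite-direction effect, scoring 1 to 39.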

Values are in µM. Every entry below has the call inconclusive. Only part of the assay is shown, chiefly results filed as inconclusive. A potency from a partial, single-point or poor curve is only a rough figure. Some entries filed as inconclusive have a full curve. The first word of each remark tells which way the curve ran; it can be opposite to the aim of the assay. Activity scores are not listed here.

- O=C(O)CCNc1cc(N2CCc3ccccc3CC2)nc(-c2ccccn2)n1 | Potency 23.48 µM (cytotoxic, single point)
- C[C@@]1(c2cc(-c3cncnc3)c(F)cc2F)CCSC(N)=N1 | Potency 1.049 µM (cytotoxic, full curve)
- CC1(C)O[C@@H]2C[C@@H]3[C@H]4C[C@@H](F)C5=CC(=O)C=C[C@]5(C)[C@@]4(F)[C@@H](O)C[C@]3(C)[C@]2(C(=O)CO)O1 | Potency 0.3317 µM (cytotoxic, partial curve, poor fit)
- CCn1c(C(=O)N(C2CC2)C2CC2)cc2c3c(ncn3C)c(Nc3cc(C)n(C)n3)nc21 | Potency 6.619 µM (cytotoxic, partial curve)
- NC(=O)c1ncn([C@@H]2O[C@H](CO)[C@@H](O)[C@@H]2O)n1 | Potency 0.0012 µM (cytotoxic, full curve, poor fit)
- Nc1nc(NCCNc2ncc(-n3ccnc3)c(-c3ccc(Cl)cc3Cl)n2)ccc1[N+](=O)[O-] | Potency 6.619 µM (cytotoxic, full curve)
- CC(C)Cn1cnc2c(N)nc3ccccc3c21 | Potency 11.77 µM (cytotoxic, single point)
- C[C@H]1[C@H](O)O[C@@H]2O[C@@]3(C)CC[C@@H]4[C@H](C)CC[C@@H]1[C@@]24OO3 | Potency 1.177 µM (cytotoxic, full curve)
- COc1cc(C(=O)NS(=O)(=O)c2ccccc2C)ccc1Cc1cn(C)c2ccc(NC(=O)OC3CCCC3)cc12 | Potency 33.17 µM (cytotoxic, single point)
- COc1cc(Nc2ncc(F)c(Nc3ccc4c(n3)NC(=O)C(C)(C)O4)n2)cc(OC)c1OC | Potency 0.0935 µM (cytotoxic, full curve, poor fit)
- CCc1cc2c(cc1N1CCC(N3CCOCC3)CC1)C(C)(C)c1[nH]c3cc(C#N)ccc3c1C2=O | Potency 0.0132 µM (rising, full curve, poor fit)
- C#C[C@]1(O)CC[C@@H]2[C@@H]3CCc4cc(O)ccc4[C@H]3CC[C@@]21C | Potency 10.49 µM (cytotoxic, partial curve)
- CCN(CC)CC#CCOC(=O)C(O)(c1ccccc1)C1CCCCC1 (stereo not shown) | Potency 26.35 µM (cytotoxic, single point)
- O=c1[nH]c(=O)n([C@H]2C[C@@H](O)[C@@H](CO)O2)cc1C(F)(F)F | Potency 0.935 µM (cytotoxic, full curve)
- CC(C)C[C@H](NC(=O)[C@H](Cc1ccccc1)NC(=O)c1cnccn1)B(O)O | Potency 0.0066 µM (cytotoxic, full curve, poor fit)
- Cn1cc(C=C2C(=O)Nc3cccnc32)c2ccccc21 | Potency 11.77 µM (cytotoxic, partial curve, poor fit)
- COc1cc(Nc2nc3ccccc3nc2NS(=O)(=O)c2ccc(NC(=O)c3ccc(C)c(OC)c3)cc2)cc(OC)c1 | Potency 11.77 µM (cytotoxic, partial curve, poor fit)
- CCc1cc(Nc2nccc(-c3c(-c4ccc(OC)c(C(=O)Nc5c(F)cccc5F)c4)nc4ccccn34)n2)c(OC)cc1N1CCC(N2CCN(S(C)(=O)=O)CC2)CC1 | Potency 0.935 µM (cytotoxic, full curve)
- Cc1cc(Cl)ccc1OCCCC(=O)NO | Potency 37.22 µM (cytotoxic, single point)
- CN(Cc1cnc2nc(N)nc(N)c2n1)c1ccc(C(=O)N[C@@H](CCC(=O)O)C(=O)O)cc1 | Potency 0.0332 µM (cytotoxic, full curve, poor fit)
- CC1CC2C3CCC4=CC(=O)C=C[C@]4(C)[C@@]3(F)[C@@H](O)C[C@]2(C)[C@@]1(O)C(=O)CO (stereo partly shown) | Potency 0.059 µM (cytotoxic, full curve, poor fit)
- COc1cccc(-c2ccc(NC(=O)C3=C(C(=O)O)CCC3)c(F)c2)c1 | Potency 1.321 µM (cytotoxic, full curve, poor fit)

Once more, the final 2:

CC1CC2C3CCC4=CC(=O)C=C[C@]4(C)[C@@]3(F)[C@@H](O)C[C@]2(C)[C@@]1(O)C(=O)CO (stereo partly shown) gave Potency 0.059 µM (cytotoxic, full curve, poor fit).
COc1cccc(-c2ccc(NC(=O)C3=C(C(=O)O)CCC3)c(F)c2)c1 gave Potency 1.321 µM (cytotoxic, full curve, poor fit).